According to patent publication US20040210184A1, “Effect of electric field and ultrasound for transdermal drug delivery” (Massachusetts Institute of Technology, priority 1995, published 2004):
Some entries share one result that the patent states for a list of compounds. At least one compound was matched to its structure with a doubt left.

Assay: Stability of the molecules under electroporating conditions and temperature, measured by fluorescence
Assay type: physicochemical
Description: In order to assess the stability of these molecules during electroporation, calcein and sulphorhodamine solutions (1 mM each) were exposed to electroporating conditions similar to those used in this study. No difference between the intensity of their fluorescence before and after exposure to electric fields could be detected. In addition, these molecules are stable up to a temperature of 100° C. (measured in terms of fluorescence).

SMILES	temperature up to which the molecules are stable (measured in terms of fluorescence) [°C]
O=C(O)CN(CC(=O)O)Cc1cc2c(cc1O)Oc1cc(O)c(CN(CC(=O)O)CC(=O)O)cc1C21OC(=O)c2ccccc21 [calcein]	≤ 100
O=S(=O)([O-])c1cc(S(=O)(=O)O)ccc1C1=c2cc3c4c(c2Oc2c1cc1c5c2CCCN5CCC1)CCC[N+]=4CCC3 [sulphorhodamine]	≤ 100
